# Data: the supplement of paper PMC12819154, “High-throughput peptide-centric local stability assay extends protein–ligand identification to membrane proteins, tissues and bacteria” (Nature Structural & Molecular Biology, 2025)
# Sequences of proteins named here, by UniProt entry; tags and fusion partners are left off. A change or cut given only in a name is not applied to a line headed by its entry.
# UniProt Q8R4X3: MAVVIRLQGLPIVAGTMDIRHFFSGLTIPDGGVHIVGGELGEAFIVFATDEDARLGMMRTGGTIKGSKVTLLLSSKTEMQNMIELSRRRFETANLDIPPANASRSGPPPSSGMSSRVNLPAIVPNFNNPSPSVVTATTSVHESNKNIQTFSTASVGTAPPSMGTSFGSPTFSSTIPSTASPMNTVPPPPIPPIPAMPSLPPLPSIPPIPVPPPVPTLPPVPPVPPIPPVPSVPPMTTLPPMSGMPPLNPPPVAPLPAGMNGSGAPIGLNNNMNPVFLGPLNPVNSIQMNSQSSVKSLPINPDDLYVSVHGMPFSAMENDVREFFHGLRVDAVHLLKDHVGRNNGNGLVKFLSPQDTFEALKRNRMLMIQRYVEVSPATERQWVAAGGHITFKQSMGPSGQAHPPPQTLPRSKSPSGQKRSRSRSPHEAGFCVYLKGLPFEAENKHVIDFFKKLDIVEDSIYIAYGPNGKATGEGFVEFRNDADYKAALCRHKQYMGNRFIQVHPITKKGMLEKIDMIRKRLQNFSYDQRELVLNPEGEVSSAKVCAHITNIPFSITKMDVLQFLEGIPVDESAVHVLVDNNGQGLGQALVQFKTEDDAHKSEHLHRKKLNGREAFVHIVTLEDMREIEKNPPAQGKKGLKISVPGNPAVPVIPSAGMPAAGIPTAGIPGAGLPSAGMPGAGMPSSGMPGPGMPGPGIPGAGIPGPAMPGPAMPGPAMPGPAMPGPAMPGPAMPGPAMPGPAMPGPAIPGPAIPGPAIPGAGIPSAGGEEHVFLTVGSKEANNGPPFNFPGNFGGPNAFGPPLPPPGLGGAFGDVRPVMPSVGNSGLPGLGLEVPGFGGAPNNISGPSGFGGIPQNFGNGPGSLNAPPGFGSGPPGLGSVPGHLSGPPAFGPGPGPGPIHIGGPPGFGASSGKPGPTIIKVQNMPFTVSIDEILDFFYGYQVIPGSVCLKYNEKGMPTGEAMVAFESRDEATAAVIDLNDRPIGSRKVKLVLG
# UniProt Q8R4Z4: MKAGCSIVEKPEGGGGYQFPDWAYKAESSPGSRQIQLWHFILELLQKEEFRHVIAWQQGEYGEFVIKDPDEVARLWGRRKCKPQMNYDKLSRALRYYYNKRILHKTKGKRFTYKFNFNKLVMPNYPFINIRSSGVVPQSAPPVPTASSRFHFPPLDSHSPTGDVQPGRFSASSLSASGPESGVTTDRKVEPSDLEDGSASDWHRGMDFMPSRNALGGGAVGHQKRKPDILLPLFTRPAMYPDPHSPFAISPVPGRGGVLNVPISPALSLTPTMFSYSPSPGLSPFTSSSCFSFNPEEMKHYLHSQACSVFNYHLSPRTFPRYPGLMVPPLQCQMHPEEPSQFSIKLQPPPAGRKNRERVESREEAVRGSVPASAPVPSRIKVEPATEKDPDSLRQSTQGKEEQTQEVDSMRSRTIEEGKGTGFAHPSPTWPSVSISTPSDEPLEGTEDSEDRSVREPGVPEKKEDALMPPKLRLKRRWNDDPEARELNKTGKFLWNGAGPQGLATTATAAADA
# UniProt Q8R409, whole entry: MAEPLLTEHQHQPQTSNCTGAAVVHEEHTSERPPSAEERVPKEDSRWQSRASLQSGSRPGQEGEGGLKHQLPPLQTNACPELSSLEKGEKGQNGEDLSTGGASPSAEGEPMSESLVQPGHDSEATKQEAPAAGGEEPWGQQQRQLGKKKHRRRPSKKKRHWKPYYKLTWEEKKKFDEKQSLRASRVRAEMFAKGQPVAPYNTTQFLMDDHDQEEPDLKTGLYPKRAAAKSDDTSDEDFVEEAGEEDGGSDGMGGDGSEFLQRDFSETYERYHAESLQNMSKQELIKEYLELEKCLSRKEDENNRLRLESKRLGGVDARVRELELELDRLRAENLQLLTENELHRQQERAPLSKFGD
# UniProt Q8VCH7: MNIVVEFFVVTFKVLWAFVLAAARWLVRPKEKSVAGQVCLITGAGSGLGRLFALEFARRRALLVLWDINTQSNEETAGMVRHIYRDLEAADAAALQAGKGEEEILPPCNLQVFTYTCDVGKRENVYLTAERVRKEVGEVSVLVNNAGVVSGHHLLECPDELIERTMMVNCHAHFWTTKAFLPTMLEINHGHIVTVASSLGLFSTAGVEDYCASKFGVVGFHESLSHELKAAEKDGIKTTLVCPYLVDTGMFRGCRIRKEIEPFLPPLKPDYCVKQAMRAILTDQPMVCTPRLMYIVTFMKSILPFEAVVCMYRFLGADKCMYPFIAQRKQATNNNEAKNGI
# UniProt Q8VD75: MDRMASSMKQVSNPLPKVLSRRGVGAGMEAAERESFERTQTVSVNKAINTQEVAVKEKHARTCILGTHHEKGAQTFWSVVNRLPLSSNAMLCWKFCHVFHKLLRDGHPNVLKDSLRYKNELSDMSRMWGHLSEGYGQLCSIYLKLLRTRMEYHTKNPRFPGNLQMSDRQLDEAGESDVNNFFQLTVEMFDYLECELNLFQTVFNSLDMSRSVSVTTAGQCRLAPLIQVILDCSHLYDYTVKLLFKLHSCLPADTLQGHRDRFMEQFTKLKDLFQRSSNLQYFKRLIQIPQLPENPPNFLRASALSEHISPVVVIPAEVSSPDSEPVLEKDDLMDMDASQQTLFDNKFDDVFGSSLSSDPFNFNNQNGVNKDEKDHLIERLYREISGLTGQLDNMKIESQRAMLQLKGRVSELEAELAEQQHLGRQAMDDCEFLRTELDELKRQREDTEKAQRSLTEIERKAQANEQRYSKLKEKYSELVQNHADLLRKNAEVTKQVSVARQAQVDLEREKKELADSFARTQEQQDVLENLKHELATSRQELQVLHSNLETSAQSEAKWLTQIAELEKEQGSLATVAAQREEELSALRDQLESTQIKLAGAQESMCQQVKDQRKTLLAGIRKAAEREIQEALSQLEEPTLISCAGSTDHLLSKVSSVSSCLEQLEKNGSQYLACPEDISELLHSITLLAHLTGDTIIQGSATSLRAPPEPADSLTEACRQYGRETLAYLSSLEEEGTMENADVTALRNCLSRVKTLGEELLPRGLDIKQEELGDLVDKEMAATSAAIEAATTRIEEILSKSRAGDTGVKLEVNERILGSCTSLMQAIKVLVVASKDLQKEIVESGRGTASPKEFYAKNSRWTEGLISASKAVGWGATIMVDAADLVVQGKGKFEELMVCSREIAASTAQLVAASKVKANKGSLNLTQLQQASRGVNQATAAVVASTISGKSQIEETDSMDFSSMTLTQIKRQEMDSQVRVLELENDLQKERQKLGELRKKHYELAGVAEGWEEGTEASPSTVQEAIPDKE
# UniProt Q8VCR3: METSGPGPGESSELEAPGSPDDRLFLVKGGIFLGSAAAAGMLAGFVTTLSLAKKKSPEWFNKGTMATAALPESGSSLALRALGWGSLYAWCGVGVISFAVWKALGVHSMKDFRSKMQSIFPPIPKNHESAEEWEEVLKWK
# UniProt Q8VBT6: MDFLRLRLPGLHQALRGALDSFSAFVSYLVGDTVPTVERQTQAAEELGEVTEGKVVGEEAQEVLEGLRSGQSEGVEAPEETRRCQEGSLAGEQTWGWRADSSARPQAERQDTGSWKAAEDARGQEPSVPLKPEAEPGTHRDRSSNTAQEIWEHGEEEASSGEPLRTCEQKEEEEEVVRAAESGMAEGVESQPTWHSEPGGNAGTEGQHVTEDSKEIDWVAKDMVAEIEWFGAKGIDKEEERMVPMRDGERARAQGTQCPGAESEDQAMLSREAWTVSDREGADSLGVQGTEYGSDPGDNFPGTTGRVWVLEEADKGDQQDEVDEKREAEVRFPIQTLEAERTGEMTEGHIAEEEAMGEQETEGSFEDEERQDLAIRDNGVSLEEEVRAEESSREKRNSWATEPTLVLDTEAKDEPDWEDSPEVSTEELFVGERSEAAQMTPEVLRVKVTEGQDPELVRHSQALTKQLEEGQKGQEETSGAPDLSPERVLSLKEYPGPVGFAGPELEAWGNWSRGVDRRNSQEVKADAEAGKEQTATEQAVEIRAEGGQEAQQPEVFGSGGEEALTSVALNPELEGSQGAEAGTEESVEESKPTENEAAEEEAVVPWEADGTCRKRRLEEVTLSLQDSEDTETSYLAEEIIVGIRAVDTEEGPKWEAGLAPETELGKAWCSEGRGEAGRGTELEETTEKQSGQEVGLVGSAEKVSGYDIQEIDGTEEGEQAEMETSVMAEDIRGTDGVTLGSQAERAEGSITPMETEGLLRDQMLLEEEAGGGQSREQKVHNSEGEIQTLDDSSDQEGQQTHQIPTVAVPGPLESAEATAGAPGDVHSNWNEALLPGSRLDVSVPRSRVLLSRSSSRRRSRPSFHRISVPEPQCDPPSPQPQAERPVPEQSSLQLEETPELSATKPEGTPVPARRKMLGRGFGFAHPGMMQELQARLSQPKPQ
# UniProt Q8R3Q6: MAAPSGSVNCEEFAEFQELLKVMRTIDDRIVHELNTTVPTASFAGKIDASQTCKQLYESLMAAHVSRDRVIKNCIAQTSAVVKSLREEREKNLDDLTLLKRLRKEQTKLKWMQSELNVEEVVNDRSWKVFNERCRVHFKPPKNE
# UniProt Q8R4I1: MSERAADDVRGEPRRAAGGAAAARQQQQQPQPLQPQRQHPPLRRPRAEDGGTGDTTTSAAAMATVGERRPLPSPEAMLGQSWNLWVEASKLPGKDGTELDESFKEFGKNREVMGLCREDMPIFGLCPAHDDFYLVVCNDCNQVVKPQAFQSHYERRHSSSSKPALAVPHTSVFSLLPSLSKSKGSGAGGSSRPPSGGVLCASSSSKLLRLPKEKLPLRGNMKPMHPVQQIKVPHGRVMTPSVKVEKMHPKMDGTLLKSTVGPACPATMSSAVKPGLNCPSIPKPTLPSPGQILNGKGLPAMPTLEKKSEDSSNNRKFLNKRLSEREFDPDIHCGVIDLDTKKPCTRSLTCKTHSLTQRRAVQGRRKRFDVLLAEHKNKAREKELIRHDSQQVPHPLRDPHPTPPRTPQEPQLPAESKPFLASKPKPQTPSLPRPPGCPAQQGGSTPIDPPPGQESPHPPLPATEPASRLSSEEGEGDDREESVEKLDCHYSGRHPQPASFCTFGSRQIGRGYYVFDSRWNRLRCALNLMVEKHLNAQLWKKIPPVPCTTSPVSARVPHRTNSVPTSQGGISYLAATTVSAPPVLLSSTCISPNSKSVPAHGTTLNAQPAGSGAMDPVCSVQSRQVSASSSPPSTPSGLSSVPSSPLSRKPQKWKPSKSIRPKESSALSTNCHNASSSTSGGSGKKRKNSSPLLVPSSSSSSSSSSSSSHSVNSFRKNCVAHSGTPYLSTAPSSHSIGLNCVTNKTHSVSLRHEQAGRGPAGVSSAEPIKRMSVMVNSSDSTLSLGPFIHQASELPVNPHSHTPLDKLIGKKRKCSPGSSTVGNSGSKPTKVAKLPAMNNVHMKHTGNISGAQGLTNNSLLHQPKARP
# UniProt Q8VCB2: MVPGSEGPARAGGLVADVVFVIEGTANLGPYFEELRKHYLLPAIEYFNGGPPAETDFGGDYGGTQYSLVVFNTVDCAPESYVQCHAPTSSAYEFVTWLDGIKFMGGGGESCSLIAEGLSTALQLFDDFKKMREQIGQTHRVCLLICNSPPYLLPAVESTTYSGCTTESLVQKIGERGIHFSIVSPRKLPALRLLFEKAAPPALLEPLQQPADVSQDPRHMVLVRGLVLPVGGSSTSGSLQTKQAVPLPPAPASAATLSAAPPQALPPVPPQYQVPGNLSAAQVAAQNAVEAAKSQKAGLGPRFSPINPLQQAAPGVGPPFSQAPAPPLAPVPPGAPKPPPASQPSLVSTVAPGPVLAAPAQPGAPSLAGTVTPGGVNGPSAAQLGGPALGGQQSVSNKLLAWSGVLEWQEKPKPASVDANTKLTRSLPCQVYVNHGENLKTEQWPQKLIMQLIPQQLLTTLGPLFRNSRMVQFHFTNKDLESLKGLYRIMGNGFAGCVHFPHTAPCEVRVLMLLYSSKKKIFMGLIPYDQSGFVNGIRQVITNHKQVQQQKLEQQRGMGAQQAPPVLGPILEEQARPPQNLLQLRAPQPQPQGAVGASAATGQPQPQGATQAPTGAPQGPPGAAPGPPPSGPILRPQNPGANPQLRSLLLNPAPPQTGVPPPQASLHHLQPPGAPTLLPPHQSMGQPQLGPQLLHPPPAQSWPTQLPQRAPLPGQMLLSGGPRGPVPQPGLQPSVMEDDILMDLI
# UniProt Q8R314: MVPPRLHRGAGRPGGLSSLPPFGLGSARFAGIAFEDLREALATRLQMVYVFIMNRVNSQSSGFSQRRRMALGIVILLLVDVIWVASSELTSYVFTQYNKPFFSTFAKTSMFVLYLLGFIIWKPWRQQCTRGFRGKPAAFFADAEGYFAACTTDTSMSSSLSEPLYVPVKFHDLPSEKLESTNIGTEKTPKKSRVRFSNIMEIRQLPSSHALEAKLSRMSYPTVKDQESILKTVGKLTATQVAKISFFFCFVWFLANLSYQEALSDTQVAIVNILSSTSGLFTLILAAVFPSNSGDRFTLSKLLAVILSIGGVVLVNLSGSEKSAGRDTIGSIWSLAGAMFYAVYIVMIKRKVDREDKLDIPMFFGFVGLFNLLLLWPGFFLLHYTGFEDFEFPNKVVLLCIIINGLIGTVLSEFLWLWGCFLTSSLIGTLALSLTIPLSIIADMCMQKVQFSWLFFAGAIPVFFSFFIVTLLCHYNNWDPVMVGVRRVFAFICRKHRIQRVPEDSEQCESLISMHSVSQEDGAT
# The list shows a part of the results. Small differences around the control level are noise.
# Compound: CN[C@@H]1C[C@H]2O[C@@](C)([C@@H]1OC)n1c3ccccc3c3c4c(c5c6ccccc6n2c5c31)C(=O)NC4 [staurosporine]
# Assay: log2 fold change of tryptic peptide abundance, ligand vs vehicle (limited proteolysis) (log2 ratio); higher = more trypsin-susceptible (destabilized)
# Details: ligand concentration: 20 uM; sample: mouse liver crude lysate; replicate design: treated separately
row,Target,log2 fold change
1,"UniProt Q8VBV7 (peptide sequence: KPASGTLDVSLNR, peptide start residue: 166)",-0.089
2,"UniProt Q8VEE0 (peptide sequence: NVCSEAAQKR, peptide start residue: 215)",0.135
3,"UniProt Q8VC04 (peptide sequence: AVSQLTSR, peptide start residue: 4)",0.054
4,"UniProt Q8R4X3 (peptide sequence: DEATAAVIDLNDRPIGSR, peptide start residue: 968)",-0.627
5,"UniProt Q8R4Z4 (peptide sequence: KVEPSDLEDGSASDWHR, peptide start residue: 188)",0.728
6,"UniProt Q8R349 (peptide sequence: LKCYDFDVHTMK, peptide start residue: 542)",1.33
7,"UniProt Q8R409 (peptide sequence: EYLELEKCLSR, peptide start residue: 287)",-0.505
8,"UniProt Q8VDG5 (peptide sequence: VVLITSGGTKVPLEAR, peptide start residue: 37)",-0.512
9,"UniProt Q8VC28 (peptide sequence: LNDGHLIPALGFGTYKPK, peptide start residue: 10)",-0.253
10,"UniProt Q8VCH7 (peptide sequence: FGVVGFHESLSHELK, peptide start residue: 215)",0.174
11,"UniProt Q8VD75 (peptide sequence: AINTQEVAVKEK, peptide start residue: 47)",0.368
12,"UniProt Q8VCR3 (peptide sequence: MQSIFPPIPK, peptide start residue: 116)",0.522
13,"UniProt Q8VE04 (peptide sequence: ELEPLKEMTTR, peptide start residue: 203)",-0.155
14,"UniProt Q8VCI0 (peptide sequence: VADIFLASQYK, peptide start residue: 495)",-0.25
15,"UniProt Q8VEB6 (peptide sequence: EGEADGIAELRK, peptide start residue: 325)",0.419
16,"UniProt Q8VD63 (peptide sequence: VAENSCAAAAR, peptide start residue: 70)",-0.217
17,"UniProt Q8VBT6 (peptide sequence: GTDGVTLGSQAER, peptide start residue: 733)",-0.253
18,"UniProt Q8R3Q6 (peptide sequence: NLDDLTLLKR, peptide start residue: 92)",0.23
19,"UniProt Q8R2Y8 (peptide sequence: SHLGMFPQNSTSEANR, peptide start residue: 35)",0.12
20,"UniProt Q8R4I1 (peptide sequence: HDSQQVPHPLRDPHPTPPR, peptide start residue: 387)",0.0643
21,"UniProt Q8VEH6 (peptide sequence: KIAVILNEFGEGSAVEK, peptide start residue: 68)",-0.323
22,"UniProt Q8VCB2 (peptide sequence: GIHFSIVSPR, peptide start residue: 177)",0.355
23,"UniProt Q8R314 (peptide sequence: FSNIMEIR, peptide start residue: 196)",0.294
24,"UniProt Q8R480 (peptide sequence: LQDDDIETTKVEMLR, peptide start residue: 622)",-0.039
25,"UniProt Q8VEF1 (peptide sequence: LLINSVFHMGAER, peptide start residue: 372)",0.439
26,"UniProt Q8VE52 (peptide sequence: ISPGASHVNSK, peptide start residue: 352)",-0.251

# An excerpt of these results, with bars between the fields.
row | Target | log2 fold change
8 | UniProt Q8VDG5 (peptide sequence: VVLITSGGTKVPLEAR, peptide start residue: 37) | -0.512
24 | UniProt Q8R480 (peptide sequence: LQDDDIETTKVEMLR, peptide start residue: 622) | -0.039
